Measured values from PubChem BioAssay AID485314 (National Center for Advancing Translational Sciences (NCATS), 2010).
Out of some 340,000 compounds screened, about 4,500 (1.3%) were called active. Inconclusive results, whose numbers are uncertain, are shown with a selection of clear calls. Calls follow the shape of the dose curve; as a rule, active = well fitted inhibition curve with a large enough effect; inconclusive = small, poorly fitted or top-dose-only effect, or another doubt; inactive = no such curve, though single readings can be large or run the other way. Potencies of inconclusive entries are doubtful fits and often do not repeat.

Target: DNA polymerase beta (Homo sapiens) (UniProt P06746)
Experiment: qHTS Assay for Inhibitors of DNA Polymerase Beta
Settings: Pol beta primer extension/strand displacement, fluorescence kinetic; activity change, negative = inhibition: at 114 µM (top of the series)
Procedure, shortened: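 Kinetic readout of DNA synthesis with strand displacement by Pol beta. Compound and 10 nM enzyme sit 15 min at room temperature; 50 nM substrate starts the reaction, read immediately and at 10 min.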
% is scaled to controls: 0 for no effect and ±100 for the full control effect; potency is read from the fitted curve at half-maximal effect.

SMILES | Potency | activity change, negative = inhibition
COc1ccc(N2CCN(CC(O)COc3ccc4c(c3)CCC4)CC2)cc1 (stereo not given) | inconclusive: 89.1 µM [inhibitor, single point] | 
O=C(NCc1ccccc1)C(c1cccs1)N(C(=O)c1csnn1)C1CC1 (stereo not given) |  | inactive: 6.54%
COc1ccc2c(c1)C(=O)C(=O)N2CC1COc2ccccc2O1 (stereo not given) | inconclusive: 15.8 µM [inhibitor, single point] | 
N#Cc1ccc(/C=C2\CCCCn3c2nc2cc(C(=O)O)ccc2c3=O)cc1 | inconclusive: 100 µM [inhibitor, single point] | 
CCN(CC)S(=O)(=O)c1ccc(C(=O)NCC2CCCCC2)cc1 | inconclusive: 35.5 µM [inhibitor, single point] | 
O=C1c2ccccc2C(=O)N1CCCCSc1nnnn1-c1ccccc1 | inconclusive: 89.1 µM [inhibitor, single point] | 
Cc1nn(C)c2c1c(-c1ccccc1)cc(=O)n2Cc1ccc(Br)cc1F | inconclusive: 89.1 µM [inhibitor, single point] | 
N#CC1=C(N)n2c(s/c(=C\c3ccco3)c2=O)=C(C#N)C1c1ccco1 (stereo not given) | active: 7.08 µM | 
CCCOc1ccc(-c2nc(SCc3ccccc3)[nH]c(=O)c2C#N)cc1OC | active: 50.1 µM | 
COc1cccc(C(=O)Nc2nc3nc(C)c(Cc4ccccc4)c(=O)n3[nH]2)c1 | inconclusive: 39.8 µM [inhibitor, single point] | 
CC(C)=CC(=O)Nc1ccc(S(=O)(=O)Nc2onc(C)c2C)cc1 |  | inconclusive: -35.9% [inhibitor]
CCOC(=O)c1c(C)[nH]c(C)c1S(=O)(=O)N(C)CC(=O)N1CCN(c2cccc(C)c2C)CC1 |  | inactive: 0.335%
Nc1[nH][nH]c(=O)c1N=Nc1ccc2c(c1)OCO2 | inconclusive: 3.98 µM [inhibitor, partial curve, poor fit] | 
O=C1C(=O)N(Cc2ccncc2)C(c2ccccc2F)/C1=C(\O)c1ccc2c(c1)OCCO2 (stereo not given) | inconclusive: 79.4 µM [inhibitor, single point] | 
COc1cccc(CNC(=O)C2CCCN(S(=O)(=O)c3ccc4c(ccn4C)c3)C2)c1OC (stereo not given) | inconclusive: 89.1 µM [inhibitor, single point] | 
CCn1c(SCC(=O)NC2CCCC2)nnc1-c1ccccn1 | inconclusive: 89.1 µM [inhibitor, single point] | 
O=C(NCCSc1ccc(Br)cc1)c1ccc2nc[nH]c2c1 | active: 39.8 µM | 
O=C(NCC1CCCO1)c1cn(-c2ccccc2)nc1-c1ccc(F)cc1 (stereo not given) | inconclusive: 0.631 µM [inhibitor, full curve] | 
CS(=O)(=O)c1cccc(C(=O)Nc2ccc(-c3nc4ccccc4[nH]3)cc2)c1 |  | inactive: 8.62%
Cc1nnc(SC(C)C(=O)NCC2CCCO2)n1-c1ccccc1 (stereo not given) | inconclusive: 3.98 µM [inhibitor, single point] | 
CCCN1C(=O)c2[nH]nc(-c3ccc(F)cc3)c2C1c1ccc(O)c(OCC)c1 (stereo not given) |  | inactive: 10.5%
Cc1ccccc1Cn1c(=O)n(CCCCC(=O)NCc2ccc3c(c2)OCO3)c(=O)c2ccccc21 | inconclusive: 89.1 µM [inhibitor, single point] | 

SMILES | Potency | activity change, negative = inhibition
Cc1cc(C(=O)Nc2sc3c(c2C#N)CCCCC3)cs1 | inconclusive: 10 µM [inhibitor, partial curve, poor fit] | 
CCSc1nnc(-c2cc3c(s2)-c2ccccc2CC3)o1 | inconclusive: 100 µM [inhibitor, single point] | 
Cc1ccc(N2CCN(CCCN3C(=O)C4CCCN4C3=O)CC2)cc1 (stereo not given) | inconclusive: 0.158 µM [inhibitor, full curve, poor fit] | 
O=C(NCCc1ccccc1)c1c2c(nc3ccccc13)C(=O)N(C1CCCCC1)C2 |  | inactive: -26.6%
Cc1cc(C)cc(-n2c(C)cc(/C=N/NC(=O)CN(c3c(C)cccc3C)S(C)(=O)=O)c2C)c1 | inconclusive: 0.794 µM [inhibitor, full curve, poor fit] | 
COc1ccccc1N1CCN(C(=O)CSc2nc(C)cc(=O)[nH]2)CC1 | inconclusive: 89.1 µM [inhibitor, single point] | 
c1ccc2oc(-c3ccn[nH]3)cc2c1 |  | inactive: 10.3%
O=C(O)/C=C/c1ccc(S(=O)(=O)N2CCN(CCN3C(=O)C4C5C=CC(C5)C4C3=O)CC2)cc1 (stereo not given) |  | inactive: 2.84%
O=C(COc1ccc(Cl)cc1)Nc1cccc(-c2ccc3nncn3n2)c1 | inconclusive: 28.2 µM [inhibitor, partial curve, poor fit] | 
CO/N=C/c1ccc(Oc2ccc([N+](=O)[O-])cc2[N+](=O)[O-])c(OC)c1 | inconclusive: 70.8 µM [inhibitor, single point] | 
CCC(=O)N1CCc2cc(S(=O)(=O)NC(Cc3ccccc3)C(=O)NCc3cccc(OC)c3)ccc21 (stereo not given) | inconclusive: 89.1 µM [inhibitor, single point] | 
CCCCOc1ccccc1NC(=O)c1ccco1 | inconclusive: 89.1 µM [inhibitor, single point] | 
Cc1nc(-c2ccncc2)sc1C(=O)Nc1ccc(Br)cc1 | active: 15.8 µM | 
COc1ccc(C(=O)Nc2nnc(S(=O)(=O)N(C)Cc3ccc(F)cc3)s2)cc1OC | inconclusive: 0.282 µM [inhibitor, full curve, poor fit] | 
O=C(Nc1cccc(Cl)c1)Nc1nnc(-c2ccncc2)s1 | active: 39.8 µM | 
Cc1cc(Oc2nc3ccccn3c(=O)c2/C=C(\C#N)c2nc3ccccc3s2)ccc1Cl |  | inactive: -2.25%
COc1ccc(CC2(CO)CCN(Cc3cccc(OC)c3OC)CC2)cc1 | inconclusive: 5.62 µM [inhibitor, full curve] | 
CCCC(CCC(=O)Nc1cc([N+](=O)[O-])ccc1O)C(=O)O (stereo not given) | active: 22.4 µM | 
COC(CNC(=O)c1ccc(-n2c(=S)[nH]c3ccccc3c2=O)cc1)OC |  | inactive: 0.556%
COCCN(C(=O)CCc1ccccc1OC)c1nnc(-c2cccnc2)s1 | inconclusive: 2.51 µM [inhibitor, partial curve, poor fit] | 
Cc1cc(CNC(=O)CCc2nnc(CCCc3ccccc3)o2)nn1C | inconclusive: 79.4 µM [inhibitor, single point] | 
Cc1nc(NC(=S)NC(=O)c2cccs2)sc1C(=O)N(C)C | inconclusive: 100 µM [inhibitor, partial curve] | 

Look-ups from the entries so far.
Cc1cc(CNC(=O)CCc2nnc(CCCc3ccccc3)o2)nn1C | Potency: inconclusive: 79.4 µM [inhibitor, single point]
O=C(COc1ccc(Cl)cc1)Nc1cccc(-c2ccc3nncn3n2)c1 | Potency: inconclusive: 28.2 µM [inhibitor, partial curve, poor fit]
Cc1cc(C(=O)Nc2sc3c(c2C#N)CCCCC3)cs1 | Potency: inconclusive: 10 µM [inhibitor, partial curve, poor fit]

Following part.

SMILES | Potency | activity change, negative = inhibition
COc1ccc2c(CNCCc3ccco3)c(C(=O)O)n(Cc3ccc(F)cc3)c2c1 | inconclusive: 100 µM [inhibitor, single point] | 
N#Cc1ccc(-c2cccnc2)nc1SCC(=O)Nc1sc2c(c1C#N)CCC2 | inconclusive: 22.4 µM [inhibitor, full curve] | 
CCOc1cc(S(=O)(=O)Nc2ccc(CC)cc2)ccc1Cl | inconclusive: 63.1 µM [inhibitor, partial curve, poor fit] | 
COc1ccc(-c2cc3nc4ccccc4n3c(N)c2C#N)cc1 | active: 3.98 µM | 
CC(C)(C)[C@H]1C=C(C(N)=O)O[C@@H](OCCCCO)C1 | inconclusive: 4.47 µM [inhibitor, single point] | 
O=C(Nc1ccccc1C(=O)N1CCOCC1)C1CC(=O)N(c2ccc(F)cc2)C1 (stereo not given) | inconclusive: 25.1 µM [inhibitor, full curve, poor fit] | 
O=c1nc(/C=C/c2ccc(-c3ccc(F)cc3)o2)cc(C(F)(F)F)[nH]1 | inconclusive: 89.1 µM [inhibitor, single point] | 
Cc1ccc(-c2cc(C(=O)N/N=C/c3c[nH]c4ccccc34)[nH]n2)cc1 | inconclusive: 39.8 µM [inhibitor, partial curve] | 
COC(=O)C1=C(O)/C(=C\c2ccc(CNC(=O)C(=O)Nc3ccc(C)c(C)c3)o2)N=C1C | inconclusive: 3.98 µM [inhibitor, full curve, poor fit] | 
CCc1ccc(NC(=O)CSc2nnc(-c3cnccn3)n2Cc2ccco2)cc1 | inconclusive: 89.1 µM [inhibitor, single point] | 
CCOC(=O)CNC(=O)CSc1nc(Cc2ccccc2)nc2ccccc12 | inconclusive: 4.47 µM [inhibitor, single point] | 
O=C(O)CSc1c2c(nc3cc(C(=O)Nc4ccc(F)c(Cl)c4)ccc13)CCCC2 |  | inactive: 20.1%
O=C(O)c1ccc(N2C(=O)/C(=C/c3ccc(-c4ccc([N+](=O)[O-])cc4)o3)C=C2c2ccccc2)cc1 | active: 10 µM | 
O=C1[C@@H]2Cc3c([nH]c4ccccc34)C(c3cccc([N+](=O)[O-])c3)N2C(=O)CN1CCCO (stereo not given in full) | inconclusive: 3.16 µM [inhibitor, full curve, poor fit] | 
CCOc1ccc(C2CC(=O)c3c([nH]c(C(=O)OC)c3C)C2)cc1OC (stereo not given) | inconclusive: 20 µM [inhibitor, full curve] | 
C[C@H](NC(=O)c1nc[nH]c1C(=O)N[C@@H](C)C(=O)OC(C)(C)C)C(=O)OCc1ccccc1 | inconclusive: 20 µM [inhibitor, partial curve, poor fit] | 
COc1ccc(CNC(=O)c2cc(-c3ccc(OC)c(OC)c3)nc3n[nH]c(-c4ccc(C)cc4)c23)cc1 |  | inactive: -0.931%
COc1ccc2cc(C(=O)Nc3ccc(S(N)(=O)=O)cc3)sc(=O)c2c1OC | inconclusive: 15.8 µM [inhibitor, partial curve] | 
CC(=O)c1ccc(NC(=O)CSc2nnc3c(n2)[nH]c2ccccc23)cc1 | active: 8.91 µM | 
CNC(=O)c1cc2cc(OC)ccc2n1CCN(Cc1ccccc1)Cc1ccccc1 | inconclusive: 1.41 µM [inhibitor, full curve, poor fit] | 
O=C(CSc1ccc2nc(-c3ccccc3)cn2n1)Nc1ccccc1 |  | inactive: 23.4%

Two compounds picked at random from the list so far, as already listed:
SMILES | Potency | activity change, negative = inhibition
CCOc1ccc(C2CC(=O)c3c([nH]c(C(=O)OC)c3C)C2)cc1OC (stereo not given) | inconclusive: 20 µM [inhibitor, full curve] | 
O=C(O)c1ccc(N2C(=O)/C(=C/c3ccc(-c4ccc([N+](=O)[O-])cc4)o3)C=C2c2ccccc2)cc1 | active: 10 µM | 
